{"source": "patent US11865146B2", "about": "(priority 2015, dated 2024)", "tested_on": "C. difficile strain 630", "assay": "C. difficile growth kinetics in basal defined medium (BDM) with DCA and varied AA concentrations", "type": "cell-based, Clostridium difficile", "conditions": "high concentrations of DCA, irrespective of AA concentration", "note": "At least one structure is not confirmed: it was looked up by name or label, or the drawing left a doubt."}
{"smiles": "C[C@H](CCC(=O)O)[C@H]1CC[C@H]2[C@@H]3CC[C@@H]4C[C@H](O)CC[C@]4(C)[C@H]3C[C@H](O)[C@]12C", "note": "[DCA, deoxycholic acid]", "values": [{"measurement": "C. difficile growth", "value": "completely inhibited"}]}
